According to patent US6642031B2, “Microorganisms with ability to degrade indole and enzymes therefrom” (Genencor International, Inc., priority 1995, dated 2003):

System: indole oxidase
Assay: Cell-free oxygen uptake in WW2 indole-induced cell extract
Assay type: biochemical, Pseudomonas putida
Conditions: colour of the reaction, substrate 0.3 mM, 1 mM NADH

Q: With `Oc1cccc2[nH]ccc12` [4-OH-Indole] as the compound, how does the Color read?
A: The Color was “brown”.
